Here are results for 6 molecules from article PMC12758332.

By UniProt entry, the sequences of proteins in these tests, tags left out. Where a name states a change or a piece, a line headed by the entry shows the natural chain unless it says otherwise. Chains listed by the source or under a name are the forms on record and can include a tag or linker. Residues count along the entry.
UniProt P10275: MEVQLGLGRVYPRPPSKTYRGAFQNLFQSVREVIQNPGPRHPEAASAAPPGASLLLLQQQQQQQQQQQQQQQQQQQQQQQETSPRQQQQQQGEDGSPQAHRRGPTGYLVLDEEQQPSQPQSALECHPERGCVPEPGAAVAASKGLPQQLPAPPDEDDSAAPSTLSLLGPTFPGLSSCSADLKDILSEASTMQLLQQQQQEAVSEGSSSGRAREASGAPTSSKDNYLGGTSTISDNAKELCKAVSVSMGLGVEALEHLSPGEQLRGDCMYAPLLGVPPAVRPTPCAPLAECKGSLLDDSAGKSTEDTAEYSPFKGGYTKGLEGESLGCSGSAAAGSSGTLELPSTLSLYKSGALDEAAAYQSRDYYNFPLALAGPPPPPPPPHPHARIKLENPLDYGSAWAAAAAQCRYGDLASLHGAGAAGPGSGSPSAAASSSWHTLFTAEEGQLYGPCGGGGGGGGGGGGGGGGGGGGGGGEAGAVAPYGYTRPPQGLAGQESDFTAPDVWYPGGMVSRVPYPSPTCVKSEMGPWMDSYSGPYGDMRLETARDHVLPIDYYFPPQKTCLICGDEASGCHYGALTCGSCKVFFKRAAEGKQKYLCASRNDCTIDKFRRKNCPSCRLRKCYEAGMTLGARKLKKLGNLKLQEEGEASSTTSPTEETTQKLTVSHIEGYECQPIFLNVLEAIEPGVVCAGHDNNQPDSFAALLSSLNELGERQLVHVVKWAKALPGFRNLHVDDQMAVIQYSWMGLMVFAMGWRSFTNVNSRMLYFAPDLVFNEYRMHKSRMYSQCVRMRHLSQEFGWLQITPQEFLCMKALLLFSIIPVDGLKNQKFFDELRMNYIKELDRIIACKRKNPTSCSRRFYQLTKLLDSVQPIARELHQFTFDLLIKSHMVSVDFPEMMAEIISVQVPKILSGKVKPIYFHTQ
GST-tagged AR (1–333): residues 1-333 of P10275
UniProt Q09472: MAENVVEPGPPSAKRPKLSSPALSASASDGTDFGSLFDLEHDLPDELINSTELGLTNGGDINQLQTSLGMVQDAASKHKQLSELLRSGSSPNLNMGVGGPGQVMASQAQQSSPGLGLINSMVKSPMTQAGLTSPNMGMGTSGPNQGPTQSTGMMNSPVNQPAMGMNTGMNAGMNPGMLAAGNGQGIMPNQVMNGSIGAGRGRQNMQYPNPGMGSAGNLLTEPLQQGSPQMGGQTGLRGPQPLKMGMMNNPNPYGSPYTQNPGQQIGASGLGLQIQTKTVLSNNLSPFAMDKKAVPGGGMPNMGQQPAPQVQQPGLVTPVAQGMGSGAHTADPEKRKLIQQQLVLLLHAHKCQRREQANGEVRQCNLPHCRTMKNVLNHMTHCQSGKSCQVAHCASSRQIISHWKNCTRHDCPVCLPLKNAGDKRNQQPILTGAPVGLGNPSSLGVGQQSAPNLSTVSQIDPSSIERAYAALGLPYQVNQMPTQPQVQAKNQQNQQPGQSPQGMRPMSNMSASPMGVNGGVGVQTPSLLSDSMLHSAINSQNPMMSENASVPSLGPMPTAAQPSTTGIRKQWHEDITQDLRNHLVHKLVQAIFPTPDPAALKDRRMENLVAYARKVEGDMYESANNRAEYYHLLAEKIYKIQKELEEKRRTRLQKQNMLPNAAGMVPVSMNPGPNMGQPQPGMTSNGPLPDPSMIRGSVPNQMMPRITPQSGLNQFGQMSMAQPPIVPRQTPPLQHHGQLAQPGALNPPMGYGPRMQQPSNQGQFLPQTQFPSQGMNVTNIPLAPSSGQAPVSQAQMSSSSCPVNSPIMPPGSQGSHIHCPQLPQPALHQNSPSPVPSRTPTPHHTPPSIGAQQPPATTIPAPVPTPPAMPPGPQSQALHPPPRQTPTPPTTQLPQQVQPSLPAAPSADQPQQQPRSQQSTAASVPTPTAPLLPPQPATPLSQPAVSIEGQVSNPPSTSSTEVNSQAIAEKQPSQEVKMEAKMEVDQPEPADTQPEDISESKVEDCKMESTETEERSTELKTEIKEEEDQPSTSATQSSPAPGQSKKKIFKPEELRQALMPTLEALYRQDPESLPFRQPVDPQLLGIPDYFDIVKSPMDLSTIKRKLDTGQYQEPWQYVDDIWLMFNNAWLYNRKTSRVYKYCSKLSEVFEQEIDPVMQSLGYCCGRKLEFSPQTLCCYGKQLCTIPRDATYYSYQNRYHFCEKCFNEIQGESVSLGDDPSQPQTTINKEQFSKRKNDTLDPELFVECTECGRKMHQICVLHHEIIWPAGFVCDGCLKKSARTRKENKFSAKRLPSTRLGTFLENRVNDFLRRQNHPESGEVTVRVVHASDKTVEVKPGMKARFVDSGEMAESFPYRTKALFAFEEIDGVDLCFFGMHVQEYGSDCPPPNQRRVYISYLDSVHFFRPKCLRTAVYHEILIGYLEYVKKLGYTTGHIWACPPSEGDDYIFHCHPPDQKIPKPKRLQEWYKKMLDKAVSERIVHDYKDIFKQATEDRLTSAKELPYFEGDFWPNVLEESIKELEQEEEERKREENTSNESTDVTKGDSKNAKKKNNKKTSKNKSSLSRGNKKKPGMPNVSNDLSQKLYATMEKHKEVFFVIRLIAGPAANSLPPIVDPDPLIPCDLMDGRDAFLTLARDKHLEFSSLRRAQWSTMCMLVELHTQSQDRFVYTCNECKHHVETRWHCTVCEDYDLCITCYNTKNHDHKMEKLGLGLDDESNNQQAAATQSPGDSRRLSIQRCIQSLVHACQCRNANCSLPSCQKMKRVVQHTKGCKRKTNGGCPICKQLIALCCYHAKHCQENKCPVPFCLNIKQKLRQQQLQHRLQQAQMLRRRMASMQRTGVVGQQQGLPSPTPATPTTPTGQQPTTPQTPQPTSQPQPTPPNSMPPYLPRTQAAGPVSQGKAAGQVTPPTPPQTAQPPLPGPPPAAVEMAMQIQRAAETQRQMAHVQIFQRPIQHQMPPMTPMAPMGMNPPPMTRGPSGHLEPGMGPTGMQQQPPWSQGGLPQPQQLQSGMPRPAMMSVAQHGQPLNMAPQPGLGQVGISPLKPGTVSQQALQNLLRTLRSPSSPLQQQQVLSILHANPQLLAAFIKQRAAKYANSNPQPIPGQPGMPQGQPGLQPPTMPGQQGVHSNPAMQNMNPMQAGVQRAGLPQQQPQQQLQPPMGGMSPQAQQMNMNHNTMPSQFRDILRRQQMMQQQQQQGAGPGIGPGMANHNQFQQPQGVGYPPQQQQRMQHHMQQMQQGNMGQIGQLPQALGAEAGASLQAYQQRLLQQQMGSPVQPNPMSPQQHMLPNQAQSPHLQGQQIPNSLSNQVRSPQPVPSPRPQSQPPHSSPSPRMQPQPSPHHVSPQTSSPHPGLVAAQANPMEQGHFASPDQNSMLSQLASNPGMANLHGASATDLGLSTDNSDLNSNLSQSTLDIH
UniProt O14929: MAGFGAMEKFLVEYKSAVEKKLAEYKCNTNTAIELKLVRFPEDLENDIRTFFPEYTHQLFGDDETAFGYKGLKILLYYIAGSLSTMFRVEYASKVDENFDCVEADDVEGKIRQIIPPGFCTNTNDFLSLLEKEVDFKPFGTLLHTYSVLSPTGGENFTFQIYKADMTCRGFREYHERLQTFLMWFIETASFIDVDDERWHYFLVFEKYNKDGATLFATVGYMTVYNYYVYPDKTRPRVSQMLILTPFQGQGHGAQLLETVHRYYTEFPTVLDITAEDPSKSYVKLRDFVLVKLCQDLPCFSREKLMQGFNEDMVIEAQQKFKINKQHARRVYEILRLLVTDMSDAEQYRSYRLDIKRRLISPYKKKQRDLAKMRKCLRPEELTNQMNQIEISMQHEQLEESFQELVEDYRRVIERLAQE
UniProt Q8WYB5: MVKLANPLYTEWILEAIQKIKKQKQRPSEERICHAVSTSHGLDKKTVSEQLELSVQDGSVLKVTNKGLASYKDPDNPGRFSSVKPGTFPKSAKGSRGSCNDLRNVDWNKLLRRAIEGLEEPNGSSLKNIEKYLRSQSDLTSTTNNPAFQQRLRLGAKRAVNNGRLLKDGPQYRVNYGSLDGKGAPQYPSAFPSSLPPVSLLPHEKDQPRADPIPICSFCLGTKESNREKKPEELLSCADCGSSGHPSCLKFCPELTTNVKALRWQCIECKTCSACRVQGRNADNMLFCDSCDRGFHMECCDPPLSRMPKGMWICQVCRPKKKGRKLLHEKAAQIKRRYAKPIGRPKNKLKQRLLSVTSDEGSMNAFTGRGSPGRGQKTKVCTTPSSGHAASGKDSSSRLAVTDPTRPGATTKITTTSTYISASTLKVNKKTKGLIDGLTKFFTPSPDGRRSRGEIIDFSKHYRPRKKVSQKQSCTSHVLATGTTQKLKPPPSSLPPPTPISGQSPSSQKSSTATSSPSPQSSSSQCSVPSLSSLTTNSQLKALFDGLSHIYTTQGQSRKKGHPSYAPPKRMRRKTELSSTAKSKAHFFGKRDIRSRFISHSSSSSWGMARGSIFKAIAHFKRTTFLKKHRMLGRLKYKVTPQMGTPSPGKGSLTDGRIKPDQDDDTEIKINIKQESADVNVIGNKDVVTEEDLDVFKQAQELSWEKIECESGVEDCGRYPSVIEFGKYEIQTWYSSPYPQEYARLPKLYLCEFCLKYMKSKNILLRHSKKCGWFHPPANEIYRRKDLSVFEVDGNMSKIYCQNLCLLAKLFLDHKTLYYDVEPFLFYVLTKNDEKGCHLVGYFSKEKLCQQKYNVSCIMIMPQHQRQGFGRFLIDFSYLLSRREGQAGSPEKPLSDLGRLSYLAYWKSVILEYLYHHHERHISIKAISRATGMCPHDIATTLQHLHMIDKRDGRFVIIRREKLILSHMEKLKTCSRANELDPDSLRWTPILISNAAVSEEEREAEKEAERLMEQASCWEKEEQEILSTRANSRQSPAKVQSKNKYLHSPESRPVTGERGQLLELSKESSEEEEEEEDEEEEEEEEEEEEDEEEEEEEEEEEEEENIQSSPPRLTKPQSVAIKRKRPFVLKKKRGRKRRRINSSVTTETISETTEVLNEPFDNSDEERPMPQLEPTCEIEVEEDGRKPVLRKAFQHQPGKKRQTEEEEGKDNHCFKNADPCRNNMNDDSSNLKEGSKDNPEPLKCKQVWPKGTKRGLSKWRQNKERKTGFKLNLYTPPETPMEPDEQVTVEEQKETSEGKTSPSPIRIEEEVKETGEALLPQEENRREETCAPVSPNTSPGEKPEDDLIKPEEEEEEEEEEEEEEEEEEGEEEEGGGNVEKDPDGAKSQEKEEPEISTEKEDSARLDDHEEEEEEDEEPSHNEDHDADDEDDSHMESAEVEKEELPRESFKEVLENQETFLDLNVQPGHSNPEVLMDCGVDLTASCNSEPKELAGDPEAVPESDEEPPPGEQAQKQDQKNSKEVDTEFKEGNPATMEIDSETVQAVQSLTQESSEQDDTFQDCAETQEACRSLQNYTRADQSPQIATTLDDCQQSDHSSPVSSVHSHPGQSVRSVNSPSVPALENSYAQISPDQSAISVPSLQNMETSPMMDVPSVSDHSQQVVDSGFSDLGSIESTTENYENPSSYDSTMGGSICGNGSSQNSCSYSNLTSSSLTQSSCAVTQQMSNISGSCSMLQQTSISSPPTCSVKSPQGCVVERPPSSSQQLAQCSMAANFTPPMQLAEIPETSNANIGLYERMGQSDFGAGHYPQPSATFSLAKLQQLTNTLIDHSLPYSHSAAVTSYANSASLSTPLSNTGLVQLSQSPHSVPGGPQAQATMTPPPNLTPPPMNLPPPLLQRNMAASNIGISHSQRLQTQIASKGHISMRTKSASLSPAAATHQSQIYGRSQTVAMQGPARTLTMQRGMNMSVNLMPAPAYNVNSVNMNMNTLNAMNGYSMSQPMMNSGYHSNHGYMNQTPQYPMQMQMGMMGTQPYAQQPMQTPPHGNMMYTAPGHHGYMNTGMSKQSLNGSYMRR

These are yes or no findings as the source states them, for the method shown. In cells and extracts the contact can be indirect. Some entries that bind do so weakly or less than the wild type. For part of these data: Tags and fused reporters may be left off the sequences shown.

Test [1] has as its target T1, GST-tagged ZMIZ2 (392–527) (UniProt Q8NF64).
T1 sequence: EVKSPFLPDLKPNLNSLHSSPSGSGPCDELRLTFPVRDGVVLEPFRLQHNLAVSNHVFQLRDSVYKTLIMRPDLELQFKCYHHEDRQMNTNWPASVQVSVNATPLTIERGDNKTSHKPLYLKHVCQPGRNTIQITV
In words: pull-down; GST pull-down with GST-tagged truncated forms of ZMIZ2 (against AR) and of AR (against ZMIZ2); no methods given.

For test [2], the target named is T2, Zinc finger MIZ domain-containing protein 2 (ZMIZ2) (human (endogenous in LNCaP and 22RV1)) (UniProt Q8NF64).
T2 sequence: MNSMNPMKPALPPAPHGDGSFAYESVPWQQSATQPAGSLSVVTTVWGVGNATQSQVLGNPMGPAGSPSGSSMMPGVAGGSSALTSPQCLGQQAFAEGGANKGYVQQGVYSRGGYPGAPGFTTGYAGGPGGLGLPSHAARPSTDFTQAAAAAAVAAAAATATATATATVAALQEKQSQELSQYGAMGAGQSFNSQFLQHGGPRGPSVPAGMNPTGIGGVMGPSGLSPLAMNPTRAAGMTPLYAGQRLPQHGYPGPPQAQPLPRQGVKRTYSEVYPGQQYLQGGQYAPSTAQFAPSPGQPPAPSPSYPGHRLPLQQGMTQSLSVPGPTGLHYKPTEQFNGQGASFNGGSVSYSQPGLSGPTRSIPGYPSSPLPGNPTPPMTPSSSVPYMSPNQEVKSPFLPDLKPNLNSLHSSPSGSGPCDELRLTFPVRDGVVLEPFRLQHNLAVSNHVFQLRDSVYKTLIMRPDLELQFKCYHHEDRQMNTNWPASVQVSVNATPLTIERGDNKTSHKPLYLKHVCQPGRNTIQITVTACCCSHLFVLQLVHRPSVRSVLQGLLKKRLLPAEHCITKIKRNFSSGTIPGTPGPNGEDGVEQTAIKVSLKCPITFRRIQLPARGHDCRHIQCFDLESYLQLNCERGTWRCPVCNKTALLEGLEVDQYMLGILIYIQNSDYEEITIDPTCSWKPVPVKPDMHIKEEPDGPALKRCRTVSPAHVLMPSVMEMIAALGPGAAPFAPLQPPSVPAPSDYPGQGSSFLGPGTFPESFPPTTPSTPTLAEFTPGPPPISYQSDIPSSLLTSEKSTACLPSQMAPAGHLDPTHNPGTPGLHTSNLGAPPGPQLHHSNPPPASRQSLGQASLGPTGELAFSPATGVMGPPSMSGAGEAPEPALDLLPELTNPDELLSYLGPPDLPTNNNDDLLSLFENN
In words: co-IP; IP of ZMIZ2 and blot for acetylases, in the presence or absence of DHT.

The target in test [3] is androgen receptor (AR) (human (endogenous in LNCaP and 22RV1)) (UniProt P10275). Description: co-IP; LNCaP lysate, AR antibody 8 h at 4 °C, protein A/G agarose 4 h, five washes with lysis buffer, blot; for the acetylases with or without DHT and after ZMIZ2 silencing.
The target is the same in test [4]. In words: co-IP; 22RV1 cells, endogenous proteins.
Test [5] has the same target. Description: co-IP; LNCaP lysate, AR antibody 8 h at 4 °C, protein A/G agarose 4 h, five washes with lysis buffer, blot; for the acetylases with or without DHT and after ZMIZ2 silencing. This is another data set of the same source.
In the next test the target is GST-tagged AR (1–333) (UniProt P10275). In words: pull-down; GST pull-down with GST-tagged truncated forms of ZMIZ2 (against AR) and of AR (against ZMIZ2); no methods given.

Consider “AR (partner of the GST-ZMIZ2 truncated forms in the pull-down) (from UniProt P10275 1-920) (receptor)”, for which the binding entry in test [1] was “binds”.
“EP300 (from UniProt Q09472 1-2414) (enzyme)”: the binding result in test [2] is on record as “binds”.
Regarding “HAT1 (from UniProt O14929 1-419) (enzyme)”, the binding result in test [2] and in test [3] was “binds” each time.
With “KAT6B (from UniProt Q8WYB5 1-2073) (enzyme)”, the binding result in test [2] and in test [3] was “binds” throughout.

B1: Zinc finger MIZ domain-containing protein 2 (ZMIZ2) (protein, UniProt Q8NF64 1-920)
chain: MNSMNPMKPALPPAPHGDGSFAYESVPWQQSATQPAGSLSVVTTVWGVGNATQSQVLGNPMGPAGSPSGSSMMPGVAGGSSALTSPQCLGQQAFAEGGANKGYVQQGVYSRGGYPGAPGFTTGYAGGPGGLGLPSHAARPSTDFTQAAAAAAVAAAAATATATATATVAALQEKQSQELSQYGAMGAGQSFNSQFLQHGGPRGPSVPAGMNPTGIGGVMGPSGLSPLAMNPTRAAGMTPLYAGQRLPQHGYPGPPQAQPLPRQGVKRTYSEVYPGQQYLQGGQYAPSTAQFAPSPGQPPAPSPSYPGHRLPLQQGMTQSLSVPGPTGLHYKPTEQFNGQGASFNGGSVSYSQPGLSGPTRSIPGYPSSPLPGNPTPPMTPSSSVPYMSPNQEVKSPFLPDLKPNLNSLHSSPSGSGPCDELRLTFPVRDGVVLEPFRLQHNLAVSNHVFQLRDSVYKTLIMRPDLELQFKCYHHEDRQMNTNWPASVQVSVNATPLTIERGDNKTSHKPLYLKHVCQPGRNTIQITVTACCCSHLFVLQLVHRPSVRSVLQGLLKKRLLPAEHCITKIKRNFSSGTIPGTPGPNGEDGVEQTAIKVSLKCPITFRRIQLPARGHDCRHIQCFDLESYLQLNCERGTWRCPVCNKTALLEGLEVDQYMLGILIYIQNSDYEEITIDPTCSWKPVPVKPDMHIKEEPDGPALKRCRTVSPAHVLMPSVMEMIAALGPGAAPFAPLQPPSVPAPSDYPGQGSSFLGPGTFPESFPPTTPSTPTLAEFTPGPPPISYQSDIPSSLLTSEKSTACLPSQMAPAGHLDPTHNPGTPGLHTSNLGAPPGPQLHHSNPPPASRQSLGQASLGPTGELAFSPATGVMGPPSMSGAGEAPEPALDLLPELTNPDELLSYLGPPDLPTNNNDDLLSLFENN
Take B1: the binding result in test [4] and in test [5] was “binds” each time.

B2: ZMIZ2 (partner of the GST-AR truncated forms in the pull-down) (protein, UniProt Q8NF64 1-920)
chain: MNSMNPMKPALPPAPHGDGSFAYESVPWQQSATQPAGSLSVVTTVWGVGNATQSQVLGNPMGPAGSPSGSSMMPGVAGGSSALTSPQCLGQQAFAEGGANKGYVQQGVYSRGGYPGAPGFTTGYAGGPGGLGLPSHAARPSTDFTQAAAAAAVAAAAATATATATATVAALQEKQSQELSQYGAMGAGQSFNSQFLQHGGPRGPSVPAGMNPTGIGGVMGPSGLSPLAMNPTRAAGMTPLYAGQRLPQHGYPGPPQAQPLPRQGVKRTYSEVYPGQQYLQGGQYAPSTAQFAPSPGQPPAPSPSYPGHRLPLQQGMTQSLSVPGPTGLHYKPTEQFNGQGASFNGGSVSYSQPGLSGPTRSIPGYPSSPLPGNPTPPMTPSSSVPYMSPNQEVKSPFLPDLKPNLNSLHSSPSGSGPCDELRLTFPVRDGVVLEPFRLQHNLAVSNHVFQLRDSVYKTLIMRPDLELQFKCYHHEDRQMNTNWPASVQVSVNATPLTIERGDNKTSHKPLYLKHVCQPGRNTIQITVTACCCSHLFVLQLVHRPSVRSVLQGLLKKRLLPAEHCITKIKRNFSSGTIPGTPGPNGEDGVEQTAIKVSLKCPITFRRIQLPARGHDCRHIQCFDLESYLQLNCERGTWRCPVCNKTALLEGLEVDQYMLGILIYIQNSDYEEITIDPTCSWKPVPVKPDMHIKEEPDGPALKRCRTVSPAHVLMPSVMEMIAALGPGAAPFAPLQPPSVPAPSDYPGQGSSFLGPGTFPESFPPTTPSTPTLAEFTPGPPPISYQSDIPSSLLTSEKSTACLPSQMAPAGHLDPTHNPGTPGLHTSNLGAPPGPQLHHSNPPPASRQSLGQASLGPTGELAFSPATGVMGPPSMSGAGEAPEPALDLLPELTNPDELLSYLGPPDLPTNNNDDLLSLFENN
Take B2: in the test with GST-tagged AR (1–333), the binding entry is reported as “binds”.
